Results as given in paper PMC10724200, “A peptide derived from interleukin-10 exhibits potential anticancer activity and can facilitate cell targeting of gold nanoparticles loaded with anticancer therapeutics” (Communications Chemistry, 2023).

The chains behind the UniProt entries cited, without tags or fusion partners. Where a name states a change or a piece, a line headed by the entry shows the natural chain unless it says otherwise.
UniProt Q13651: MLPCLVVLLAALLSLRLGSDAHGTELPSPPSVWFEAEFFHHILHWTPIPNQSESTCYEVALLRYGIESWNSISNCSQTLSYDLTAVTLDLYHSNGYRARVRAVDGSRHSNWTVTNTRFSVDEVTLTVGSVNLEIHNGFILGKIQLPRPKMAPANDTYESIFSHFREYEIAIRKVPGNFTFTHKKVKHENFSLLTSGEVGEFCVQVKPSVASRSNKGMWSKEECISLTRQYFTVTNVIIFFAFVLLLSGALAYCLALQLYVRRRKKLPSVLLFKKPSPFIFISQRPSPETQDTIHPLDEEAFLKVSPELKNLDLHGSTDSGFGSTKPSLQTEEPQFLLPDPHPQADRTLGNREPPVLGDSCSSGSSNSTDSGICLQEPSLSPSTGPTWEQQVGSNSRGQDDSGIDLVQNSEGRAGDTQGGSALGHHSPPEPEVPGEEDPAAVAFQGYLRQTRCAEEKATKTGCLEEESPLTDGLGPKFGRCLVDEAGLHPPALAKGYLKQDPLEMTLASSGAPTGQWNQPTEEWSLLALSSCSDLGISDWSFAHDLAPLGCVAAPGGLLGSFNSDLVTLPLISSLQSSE

Target: recombinant receptor human IL-10Ra protein (human) (UniProt Q13651)
Test: BLI; ForteBio Octet RED96e, streptavidin biosensors loaded with 10 μg/mL recombinant human IL-10Ra (150 s); peptides at 3.12-100.0 μM, association 120 s; dissociation 120 s in PBS with 0.05% Tween20; both purified

CPLNGSTVYGHLRHCLSCSG [CG20 negative control peptide]
binding: no binding (tested: 100.0 μM (highest concentration tested))

Results are given in words; binding and its absence hold for the method and conditions named.
